Assay results as given in the odorant receptor screen of Mainland et al. (2015).
Several values for one entry are separate records, joined by “and”; a condition that tells them apart may be missing. Equal values may be shown once. The list shows a part of the results. Each value is one well over the wells without odorant, computed here; the data are noisy.

Chains of the proteins cited; added tags and fusions are not shown. A line that says so, or that is headed by a name, gives the form on record, which may keep a tag or linker.
pseudo, as listed by the source: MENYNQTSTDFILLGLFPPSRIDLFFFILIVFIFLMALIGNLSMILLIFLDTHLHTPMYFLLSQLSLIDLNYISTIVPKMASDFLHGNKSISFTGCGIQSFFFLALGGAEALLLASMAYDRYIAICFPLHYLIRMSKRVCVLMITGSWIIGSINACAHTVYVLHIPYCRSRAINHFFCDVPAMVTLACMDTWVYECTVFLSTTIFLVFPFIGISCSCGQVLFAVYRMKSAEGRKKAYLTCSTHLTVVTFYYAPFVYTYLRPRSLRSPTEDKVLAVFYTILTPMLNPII

What was measured:
Assay in all cases: odorant receptor activation (CRE luciferase / Renilla) (fold of no-odor wells); higher = more activation
Details in all cases: 100 µM
[1] = test system: OR9K2 clone 1389
[2] = test system: OR9Q1 A2V clone 1713
[3] = test system: OR9Q2 C179R clone 1310
[4] = test system: OR9Q2 clone 1177
[5] = test system: OR9Q2 clone 1501
[6] = test system: pseudo clone 1035
[7] = test system: pseudo clone 1218
[8] = test system: pseudo clone 1380
[9] = test system: pseudo clone 1384
[10] = test system: pseudo clone 1417
[11] = test system: pseudo clone 1419

Compound	odorant receptor activation [1]	odorant receptor activation [2]	odorant receptor activation [3]	odorant receptor activation [4]	odorant receptor activation [5]	odorant receptor activation [6]	odorant receptor activation [7]	odorant receptor activation [8]	odorant receptor activation [9]	odorant receptor activation [10]	odorant receptor activation [11]
CC(C)CC(=O)O [isovaleric acid]	0.79	1.82	0.869	1.19	0.808	1.28	1.27	1.07	0.834	0.643	1.07
O=CCc1ccccc1 [phenyl acetaldehyde]	1.69	0.949	0.903	1.39	1.04	0.961	0.808	1.49	1.65	1.72	2.08
CC1COCc2cc3c(cc21)C(C)(C)C(C)C3(C)C (stereo not given) [galaxolide]	4.21	–	1.15 and 3.11	0.818	5.64 and 3.8	4.26	0.914	4.53	4.07	3.41	2.93
CCCCO [1-butanol]	1.6	0.93	0.757	0.858	1.45	1.98	0.987	0.82	1.5	1.05	0.798
CCCCCCOC(=O)CCC [hexyl butyrate]	0.923	0.866	1.26 and 0.728	0.946	1.09 and 0.741	0.831	0.995	0.926	0.784	0.875	0.776
CCCCCCCCCCC=O [undecanal]	1.01	1.05	0.825	0.893	1.02	1.1	0.892	0.94	1.27	1.06	1.44
COc1cc(C=O)ccc1O [vanillin]	1.05	0.995	0.992	1.06	1.15	0.887	0.864	1.14	1.13	0.954	1.33
CCCCCC(C)=O [2-heptanone]	0.825	–	2.16	1.34	1.22 and 0.552	0.503	1.26	0.878	0.962	0.892	1.17
CC(C)=CCCC(C)=CC=O [citral]	0.264	1.1	1.14	1.19	1.28	1.37	1.11	0.316	0.176	0.253	0.332
COc1ccccc1O [guaiacol]	0.761	0.724	0.827 and 0.94	0.989	0.708 and 0.964	1.76	1.25	1.05	0.884	0.882	0.78
C=C(C)C1CC=C(C)C(=O)C1 (stereo not given) [r-carvone]	1.04	0.932	0.697	1.1	0.931	0.959	0.935	1.45	1.12	1.07	1.32
CC(C)(O)CCCC1=CCC(C=O)CC1 (stereo not given) [lyral]	–	0.804	–	–	–	–	–	–	–	–	–
COc1cc(C)ccc1O [2-methoxy-4-methylphenol]	2.4	0.662	0.923	0.829	1.34	1.59	1.12	1.09	1.12	0.957	1.21
CCCCCCCCC=O [nonyl aldehyde]	0.94	0.854	0.993	1.13	0.943	1	1.12	0.834	1.04	0.632	1.22
O=C1CCCCCCCCCCCC(=O)OCCO1 [ethylene brassylate]	1.8	0.898	1.25	1.89	1.01	1.57	1.99	2.29	1.58	2.23	1.56
CC(C)(C)c1ccc(CCC=O)cc1 [bourgeonal]	0.212	–	0.829	0.754	1.05	0.937	0.665	0.224	0.166	0.229	0.173
COC(=O)c1ccccc1 [methyl benzoate]	0.801	–	1.03	0.837	0.912 and 0.778	0.975	0.696	0.841	0.825	0.775	1
CC(C)CCC(=O)O [4-methylvaleric acid]	1.53	0.646	1.04	0.706	1.1	1.26	0.845	0.768	1.26	1.16	1.17
CCCC(=O)O [butyric acid]	0.246	0.803	1.19	1.24	1.06	1.35	1.16	0.282	0.189	0.306	0.279
CC(=O)c1ccccc1 [acetophenone]	0.929	–	1.14	1.23	1.01 and 0.691	0.679	1.21	0.785	0.931	0.81	1.13
CCCCCCCCCC=O [decyl aldehyde]	1.8	0.687	1.32	1.01	0.892	1.03	1.44	1.58	1.03	1.97	1.36
CCCCCCCC=CC=O [2-decenal]	2.88	0.915	0.722	0.83	1.53	14.4	1	1.65	0.908	1.19	0.766
CC12C=CCC1C1CCC3=CC(=O)CCC3(C)C1CC2 (stereo not given) [androstadienone]	0.97	–	0.799 and 0.99	1.18	0.803 and 1.05	1.57	1.16	1.04	0.867	0.85	0.883
C=CCc1ccc(OC(C)=O)c(OC)c1 [eugenol acetate]	1.86	1.81	1.23	1.8	1.64	1.64	1.47	1.74	1.56	2.38	1.46
C=C(C)C1CCC2=CC(=O)CC(C)C2(C)C1 (stereo not given) [amyl laurate]	–	1.37	–	–	–	–	–	–	–	–	–
CC12C=CCC1C1CCC3CC(=O)CCC3(C)C1CC2 (stereo not given) [androstenone]	1.38	–	1.16	5.82	1.07	1.39	7.18	0.902	1.23	1.05	0.98
CC(=O)OC1CC2CCC1(C)C2(C)C (stereo not given) [isobornyl acetate]	0.914	1.46	1.18 and 0.923	0.881	0.984 and 0.981	0.991	1.26	1.05	0.858	0.978	0.869
CC1=NC(C)SC1C (stereo not given)	0.947	–	2.33	0.952	1.37 and 0.86	0.566	1.22	1.12	0.926	1.11	1.42
O=C1CCCCC1 [Cyclohexanone]	0.803	–	1.09	1.05	1.23 and 0.754	0.863	0.908	0.847	0.768	0.873	1.11
CCCCCCC=O [heptaldehyde]	0.993 and 0.813	0.916	0.992 and 1.35 and 0.954	0.384 and 1.03	–	0.718 and 1.47	0.427 and 1.19	1.13 and 0.755	1.2 and 0.912	1.08 and 0.856	1.14 and 0.686

Looked up above.
CCCCCC(C)=O [2-heptanone] – odorant receptor activation [10]: 0.892
CC1=NC(C)SC1C (stereo not given) – odorant receptor activation [5]: 1.37 and 0.86
